These are yes or no findings as the source states them, for the method shown. Some results given as binding are weak or reduced against the parent protein; the word gives no strength.

By UniProt entry, the sequences of proteins in these tests, tags left out.
UniProt Q05138: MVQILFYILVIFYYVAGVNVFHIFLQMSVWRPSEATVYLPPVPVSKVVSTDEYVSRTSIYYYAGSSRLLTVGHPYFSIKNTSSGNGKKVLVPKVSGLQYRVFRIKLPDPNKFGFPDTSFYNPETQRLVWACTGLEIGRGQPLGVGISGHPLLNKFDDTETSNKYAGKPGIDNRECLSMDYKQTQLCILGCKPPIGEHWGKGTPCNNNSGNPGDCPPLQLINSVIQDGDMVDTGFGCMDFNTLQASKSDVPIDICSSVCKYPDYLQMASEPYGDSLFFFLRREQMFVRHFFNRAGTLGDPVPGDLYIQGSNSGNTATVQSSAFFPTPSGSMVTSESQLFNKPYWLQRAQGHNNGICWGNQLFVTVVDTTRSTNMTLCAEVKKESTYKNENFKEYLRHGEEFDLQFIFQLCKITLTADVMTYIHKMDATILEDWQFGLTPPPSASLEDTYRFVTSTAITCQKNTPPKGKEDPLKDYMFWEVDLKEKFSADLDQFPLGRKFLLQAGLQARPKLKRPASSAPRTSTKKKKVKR

In this experiment the target is wild-type HPV52L1 expressed in 293FT cells (human papillomavirus type 52 (HPV52)) (UniProt Q05138). The experiment can be described thus: negative-staining TEM; L1 (and L2, pN31-EGFP) plasmids transfected into 293FT cells; particles purified by Capto Core 700 and viewed by TEM.

Consider “wild-type HPV52L1 expressed in 293FT cells (from UniProt Q05138 1-529)”, for which the binding result is reported as “binds”.

Values taken from PMC7275066.
